PubChem BioAssay AID1259424 | University of Nebraska Medical Center, 2018
Shown is one part, drawn at random, of about 14,000 reagents. 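Higher correlation or smaller distance means closer resemblance to KSR1 loss; control wells, including KSR1 knockdowns, recur on many plates.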 A reagent listed more than once was tested more than once; the source does not tell the runs apart. Not given: the time to read-out.

Aim: 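Find knockdowns that reproduce the expression shifts seen after KSR1 loss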 (primary screen)
Cell system: human HCT116 colon cancer cells
Reagents: siRNA pool against human genes, 50 nM
Read-out: 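Six signature mRNAs by branched-DNA multiplex assay, scaled to two housekeeping genes and non-targeting median, log2; matched to mean KSR1 knockdown profile by Pearson correlation and euclidean distance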
Reading the numbers: mean correlation with KSR1 profile and KSR1 correlation: higher = expression change more like KSR1 knockdown; mean distance from KSR1 profile: higher = expression change less like KSR1 knockdown

Target gene	mean correlation with KSR1 profile	mean distance from KSR1 profile	KSR1 correlation, replicate 1	KSR1 correlation, replicate 2	KSR1 correlation, replicate 3
AAK1 (AP2 associated kinase 1)	0.572	2.92	0.535	0.424	0.569
GPSM1 (G protein signaling modulator 1)	0.143	1.53	0.652	0.244	-0.419
SPINK5 (serine peptidase inhibitor Kazal type 5)	0.0846	1.72	0.0837	0.112	0.0604
HACD3 (3-hydroxyacyl-CoA dehydratase 3)	0.11	2.68	0.0337	0.289	0.306
TRPM8	0.152	2.2	0.312	-0.0192	0.0571
PTPRCAP	0.253	1.41	0.195	0.292	0.307
HPGD (15-hydroxyprostaglandin dehydrogenase)	0.0434	4.18	-0.183	-0.113	0.0865
RFX3 (regulatory factor X3)	-0.0692	1.87	-0.0808	0.272	-0.117
SLC4A7	0.503	1.36	0.382	0.565	0.468
ADRA2B (adrenoceptor alpha 2B)	0.863	3.43	0.869	0.871	0.843
TUBG1 (tubulin gamma 1)	-0.188	1.68	-0.148	-0.0579	-0.425
CDH13 (cadherin 13)	-0.0434	3.03	0.053	0.0561	-0.147
TMEM11 (transmembrane protein 11)	0.777	1.91	0.765	0.758	0.807
RRP7A (ribosomal RNA processing 7 homolog A)	-0.247	1.78	-0.63	-0.309	-0.367
EN1 (engrailed homeobox 1)	-0.253	2.65	-0.105	-0.0148	-0.271
MTNR1B (melatonin receptor 1B)	0.417	2.26	0.545	0.489	0.348
PFKFB1 (6-phosphofructo-2-kinase/fructose-2,6-biphosphatase 1)	0.0708	2.61	0.0552	0.371	0.134
PELO (pelota mRNA surveillance and ribosome rescue factor)	-0.708	2.4	-0.729	-0.537	-0.658
GSTM3 (glutathione S-transferase mu 3)	0.0999	1.69	0.247	-0.139	0.0358
KIF21B (kinesin family member 21B)	-0.641	3.09	-0.719	-0.606	-0.537
H1-4 (H1.4 linker histone, cluster member)	-0.0298	2.1	0.0863	-0.0758	-0.211
PDLIM1 (PDZ and LIM domain 1)	-0.263	3.28	-0.329	-0.0743	-0.46
BCL6 (BCL6 transcription repressor)	0.682	1.4	0.775	0.649	0.726
ENDOD1 (endonuclease domain containing 1)	-0.242	2.28	-0.0622	-0.565	-0.0522
ATP5F1E (ATP synthase F1 subunit epsilon)	0.575	0.997	0.749	0.421	0.394
STC1 (stanniocalcin 1)	-0.558	2.65	-0.529	-0.651	-0.474
CNOT1 (CCR4-NOT transcription complex subunit 1)	-0.718	3.41	-0.64	-0.796	-0.59
NPSR1-AS1 (NPSR1 antisense RNA 1)	0.301	1.49	0.599	0.681	-0.361
ADD2 (adducin 2)	0.335	2.08	0.217	0.233	0.489
DSC3 (desmocollin 3)	-0.2	3.3	-0.258	0.122	-0.316
ING3 (inhibitor of growth family member 3)	0.00759	2.64	0.111	0.0419	-0.115
ETHE1 (ETHE1 persulfide dioxygenase)	-0.318	1.42	-0.491	-0.11	-0.312
SEPTIN6 (septin 6)	0.639	2.03	0.599	0.693	0.554
KBTBD7 (kelch repeat and BTB domain containing 7)	0.661	1.73	0.653	0.51	0.616
KBTBD7 (kelch repeat and BTB domain containing 7)	0.00426	3.1	0.075	-0.273	-0.0646

Targets above whose target name begins with G or g (2):
Target gene	mean correlation with KSR1 profile	mean distance from KSR1 profile	KSR1 correlation, replicate 1	KSR1 correlation, replicate 2	KSR1 correlation, replicate 3
GPSM1 (G protein signaling modulator 1)	0.143	1.53	0.652	0.244	-0.419
GSTM3 (glutathione S-transferase mu 3)	0.0999	1.69	0.247	-0.139	0.0358
